The list shows only some results of the screen, not a fair sample: it is rich in T/C values a quarter to a half above the control, in often repeated tests (any T/C) and in doses without a T/C. Other doses and runs of a compound stand elsewhere. T/C gives the treated animals as a percentage of the vehicle group. Some doses have a count of surviving animals in place of a T/C: the source files T/C as zero there, which appears to mark a toxic dose or a test without result, not a measured value. Some doses without a T/C left all or most animals alive at the check, yet need not have been tolerated: survival well below the control is almost never listed, so the zero probably covers shortened survival too. Counts of survivors are from the toxicity check (mostly the fifth day) where no day follows; animals may have died later. Schedules are NCI's codes, read here as Q, the interval in days (D) or hours (H), X, the number of doses. Some entries were tested several times; their values stand side by side, smallest first. For survival time, the PubChem record calls one and a half times the control and up active, and a quarter to a half above the control has no call in these data; cut-offs in other NCI protocols can differ. Some T/C values carry the count of animals alive at the toxicity check (mostly the fifth day); where none is given, no animal had died by that day.
System: CAF1 mice, leiomyosarcoma No.2 ip, survival T/C%
Test: NCI In Vivo Anticancer Drug Screen. Data for tumor model Leiomyosarcoma (No. 2) (intraperitoneal) in CAF1 mice
Conditions: T/C endpoint: mean survival time, higher T/C = longer survival
Protocol: The antitumor activity of compounds was measured in mice bearing transplantable tumors. Survival or tumor size were measured and the results are expressed as the measurement made in the treated group (T) divided by the measurement made in the vehicle treated control group (C). The tumor model used in this assay is Leiomyosarcoma (No. 2) (intraperitoneal) in CAF1 mice

[1] = dose: 16.0 mg/kg/injection, schedule: Q01DX010 (ip), vehicle: saline
[2] = dose: 32.0 mg/kg/injection, schedule: Q01DX010 (ip), vehicle: saline
[3] = dose: 80.0 mg/kg/injection, schedule: Q01DX010 (ip), vehicle: saline
[4] = dose: 400.0 mg/kg/injection, schedule: Q01DX010 (ip), vehicle: saline
[5] = dose: 0.63 mg/kg/injection, schedule: Q01DX010 (ip), vehicle: saline
[6] = dose: 2.5 mg/kg/injection, schedule: Q01DX010 (ip), vehicle: saline
[7] = dose: 5.0 mg/kg/injection, schedule: Q01DX010 (ip), vehicle: saline
[8] = dose: 100.0 mg/kg/injection, schedule: Q01DX010 (ip), vehicle: saline
[9] = dose: 200.0 mg/kg/injection, schedule: Q01DX010 (ip), vehicle: saline
[10] = dose: 25.0 mg/kg/injection, schedule: Q01DX010 (ip), vehicle: saline
[11] = dose: 50.0 mg/kg/injection, schedule: Q01DX010 (ip), vehicle: saline
[12] = dose: 20.0 mg/kg/injection, schedule: Q01DX010 (ip), vehicle: saline
[13] = dose: 3.13 mg/kg/injection, schedule: Q01DX010 (ip), vehicle: saline
[14] = dose: 6.25 mg/kg/injection, schedule: Q01DX010 (ip), vehicle: saline
[15] = dose: 40.0 mg/kg/injection, schedule: Q01DX010 (ip), vehicle: saline
[16] = dose: 4.0 mg/kg/injection, schedule: Q01DX010 (ip), vehicle: saline
[17] = dose: 250.0 mg/kg/injection, schedule: Q01DX010 (ip), vehicle: saline
[18] = dose: 125.0 mg/kg/injection, schedule: Q01DX010 (ip), vehicle: saline
[19] = dose: 200.0 mg/kg/injection, schedule: Q01DX010 (ip), vehicle: alkali diluted with saline
[20] = dose: 10.0 mg/kg/injection, schedule: Q01DX010 (ip), vehicle: saline
[21] = dose: 62.5 mg/kg/injection, schedule: Q01DX010 (ip), vehicle: saline
[22] = dose: 500.0 mg/kg/injection, schedule: Q01DX010 (ip), vehicle: saline
[23] = dose: 8.0 mg/kg/injection, schedule: Q01DX010 (ip), vehicle: saline
[24] = dose: 60.0 mg/kg/injection, schedule: Q01DX010 (ip), vehicle: saline
[25] = dose: 18.0 mg/kg/injection, schedule: Q01DX010 (ip), vehicle: saline

Compound: CC(CCC(C)OS(C)(=O)=O)OS(C)(=O)=O (stereo unspecified)
- T/C [1]: 140 % of control
- survivor count [2]: 6 of 6

Compound: OCC1OC(n2cnc3c(=S)nc[nH]c32)C(O)C1O (stereo unspecified)
- T/C [3]: 137 % of control
- survivor count (dose: 160.0 mg/kg/injection, schedule: Q01DX010 (ip), vehicle: saline): 6 of 6

Compound: C#CCN(C)Cc1ccccc1
- survivor count [4]: 2 of 6

Compound: Oc1cc(CN(CCCl)CCCl)c(O)cc1CN(CCCl)CCCl
- T/C [5]: 125 % of control
- survivor count [5]: 4 of 6
- T/C [6]: 129 % of control [5 of 6 alive]
- survivor count [6]: 4 of 6
- survivor count [7]: 5 of 6

Compound: CN(C)/N=N/c1nc[nH]c1C(N)=O
- T/C [8]: 131 % of control
- T/C [9]: 127 % of control

Compound: O=[n+]1c2c(n([O-])c3ccccc31)-c1cccc3cccc-2c13
- survivor count [10]: 6 of 6
- survivor count [11]: 6 of 6
- survivor count [8]: 6 of 6
- survivor count [9]: 4 of 6

Compound: C[C@@H]1C[C@@H]([C@H](O)CC2CC(=O)NC(=O)C2)C(=O)[C@@H](C)C1
- T/C [12]: 138 % of control

Compound: CCCNc1ncnc2[nH]ncc12
- survivor count [13]: 6 of 6
- survivor count [14]: 6 of 6
- survivor count [10]: 6 of 6

Compound: O=c1[nH]cc(F)c(=O)[nH]1
- T/C [7]: 136 % of control
- survivor count [15]: 6 of 6

Compound: C=CC(CN1CC1)OC(C)=O (stereo unspecified)
- T/C [16]: 136 % of control
- T/C [1]: 140 % of control

Compound: CSc1ncnc2nc[nH]c12
- survivor count [9]: 0 of 6

Compound: O[C@H](CN1CC1)[C@@H](O)CN1CC1
- T/C (dose: 1000.0 micrograms/kg/injection, schedule: Q01DX010 (ip), vehicle: saline): 141 % of control

Compound: CCCSc1ncnc2nc[nH]c12
- survivor count [17]: 6 of 6

Compound: CCn1cnc2c(=S)nc[nH]c21
- survivor count [18]: 6 of 6

Compound: Nc1nc(N)c2nc(CNc3ccc(C(=O)NC(CCC(=O)O)C(=O)O)cc3)cnc2n1 (stereo unspecified)
- T/C (dose: 0.05 mg/kg/injection, schedule: Q01DX010 (ip), vehicle: other): 125 % of control
- T/C (dose: 0.2 mg/kg/injection, schedule: Q01DX010 (ip), vehicle: other): 133 % of control

Compound: CC(=O)Nc1ccc2nc3ccc(NC(C)=O)cc3[n+](-c3ccccc3)c2c1
- T/C [10]: 125 % of control
- T/C [11]: 129 % of control
- T/C [8]: 141 % of control
- T/C [9]: 129 % of control

Compound: Nc1nc2n[nH]nc2c(=O)[nH]1
- T/C (dose: 100.0 mg/kg/injection, schedule: Q01DX010 (ip), vehicle: alkali diluted with saline): 138 % of control
- T/C [19]: 133 % of control
- survivor count [19]: 0 of 6

Compound: NC(Cc1ccc(N(CCCl)CCCl)cc1)C(=O)O (stereo unspecified)
- survivor count [12]: 6 of 6

Compound: Nc1nc(SCc2ccccc2)c2[nH]cnc2n1
- T/C [1]: 125 % of control

Compound: COS(C)(=O)=O
- survivor count [8]: 6 of 6

Compound: CCN(CC)CCNc1ccc(C)c2sc3ccccc3c(=O)c12
- T/C [11]: 129 % of control
- survivor count [8]: 6 of 6
- survivor count [9]: 3 of 6

Compound: CS(=O)(=O)OCCCl
- T/C (dose: 37.5 mg/kg/injection, schedule: Q01DX010 (ip), vehicle: saline): 125 % of control
- T/C (dose: 75.0 mg/kg/injection, schedule: Q01DX010 (ip), vehicle: saline): 126 % of control

Compound: CS(=O)(=O)OCC(O)C(O)C(O)C(O)COS(C)(=O)=O (stereo unspecified)
- T/C [9]: 127 % of control
- T/C [4]: 140 % of control

Compound: N#[N+]c1cnc([O-])[nH]c1=O
- T/C [6]: 134 % of control
- survivor count [20]: 0 of 6

Compound: S=P(N1CCOCC1)(N1CC1)N1CC1
- survivor count [12]: 6 of 6

Compound: Cc1cc(N(CCCl)CCCl)ccc1N=Nc1ccccc1C(=O)O
- T/C [7]: 145 % of control
- T/C [12]: 137 % of control
- survivor count [3]: 6 of 6

Compound: O=c1cn[nH]c(=O)[nH]1
- survivor count [21]: 6 of 6
- survivor count [22]: 5 of 6

Compound: Nc1nc(=S)c2ncn(C3OC(CO)C(O)C3O)c2[nH]1 (stereo unspecified)
- survivor count [16]: 6 of 6
- survivor count [23]: 6 of 6
- survivor count [1]: 6 of 6

Compound: CS(=O)(=O)OCCCCOS(C)(=O)=O
- survivor count [14]: 6 of 6
- survivor count [10]: 6 of 6
- survivor count [11]: 6 of 6

Compound: Clc1ncnc2nc[nH]c12
- T/C [24]: 133 % of control

Compound: CS(=O)(=O)OCCN(CCOS(C)(=O)=O)c1ccc(N=O)cc1
- survivor count (dose: 2.0 mg/kg/injection, schedule: Q01DX010 (ip), vehicle: saline): 0 of 6 and 6 of 6
- survivor count [16]: 6 of 6
- survivor count [23]: 5 of 6
- survivor count [1]: 0 of 6

Compound: CN(C)c1nc(N(C)C)nc(N(C)C)n1
- T/C (dose: 150.0 mg/kg/injection, schedule: Q01DX010 (ip), vehicle: saline): 133 % of control

Compound: CC(=O)NC1=C(N2CC2)C(=O)C(NC(C)=O)=C(N2CC2)C1=O
- T/C (dose: 125.0 micrograms/kg/injection, schedule: Q01DX010 (ip), vehicle: saline): 136 % of control

Compound: CCCCOP(=S)(N1CC1)N1CC1
- survivor count [2]: 6 of 6

Compound: O=C(Nc1ccc(NC2=NCCN2)cc1)c1ccc(C(=O)Nc2ccc(NC3=NCCN3)cc2)cc1
- T/C [16]: 126 and 134 % of control
- T/C [23]: 126 % of control
- T/C [1]: 130 % of control

Compound: C[C@H]1C(=O)O[C@@H]2CCN3CC=C(COC(=O)[C@](C)(O)[C@@]1(C)O)[C@H]23
- T/C [11]: 125 % of control

Compound: O=C(Nc1ccc(C2=NCCN2)cc1)c1cccc(C(=O)Nc2ccc(C3=NCCN3)cc2)c1
- T/C [2]: 130 and 135 % of control
- T/C (dose: 64.0 mg/kg/injection, schedule: Q01DX010 (ip), vehicle: saline): 126 and 132 % of control

Compound: O=C(Nc1ccc(C2=NCCN2)cc1)c1ccc(C(=O)Nc2ccc(C3=NCCN3)cc2)c([N+](=O)[O-])c1
- T/C (dose: 6.0 mg/kg/injection, schedule: Q01DX010 (ip), vehicle: saline): 140 % of control
- T/C [23]: 135 % of control
- T/C (dose: 12.0 mg/kg/injection, schedule: Q01DX010 (ip), vehicle: saline): 133 and 139 % of control
- T/C [25]: 128 % of control
- survivor count [25]: 6 of 6

Compound: CC(=O)N(C)C
- survivor count [21]: 6 of 6
- survivor count [17]: 6 of 6
- survivor count [22]: 6 of 6

Compound: N#CCSc1ncnc2nc[nH]c12
- T/C [24]: 127 % of control
- T/C (dose: 120.0 mg/kg/injection, schedule: Q01DX010 (ip), vehicle: saline): 137 % of control

Compound: CN(C)c1ccc(/C=C/c2ccnc3ccccc23)cc1
- survivor count [20]: 6 of 6
- survivor count [12]: 6 of 6
- survivor count [15]: 6 of 6

Compound: C1CN1c1nc(N2CC2)nc(N2CC2)n1
- T/C (dose: 0.13 mg/kg/injection, schedule: Q01DX010 (ip), vehicle: saline): 129 % of control
- T/C (dose: 0.25 mg/kg/injection, schedule: Q01DX010 (ip), vehicle: saline): 125 % of control
- survivor count (dose: 1.0 mg/kg/injection, schedule: Q01DX010 (ip), vehicle: saline): 6 of 6

Compound: O=NN(CCCl)C(=O)NCCCl
- survivor count [10]: 6 of 6

Compound: CCCCNc1ncnc2c1cnn2C
- survivor count (dose: 15.6 mg/kg/injection, schedule: Q01DX010 (ip), vehicle: saline): 6 of 6
- survivor count [18]: 5 of 6

Compound: O=c1[nH]c(=O)n(C2CC(O)C(CO)O2)cc1F (stereo unspecified)
- T/C [20]: 141 % of control
- T/C [15]: 127 and 136 % of control
- survivor count [3]: 6 of 6

Compound: N=[N+]=CC(=O)OCC(N)C(=O)O (stereo unspecified)
- T/C [13]: 141 % of control
- T/C [14]: 142 % of control
- survivor count [10]: 5 of 6

Compound: C[C@]12C=CC(=O)C=C1CC[C@@H]1[C@@H]2[C@@H](O)C[C@@]2(C)[C@H]1CC[C@]2(O)C(=O)CO
- survivor count (dose: 100.0 mg/kg/injection, schedule: Q01DX010 (sc), vehicle: steroid suspending solution): 6 of 6

Reference: PubChem BioAssay AID238 (DTP/NCI, 2004)
